Reference: patent US9085541B2, “Process for producing imine compounds for combating invertebrate pests” (priority 2010, dated 2015)
Some entries share one result that the patent states for a list of compounds.

Tested on: tobacco budworm (Heliothis virescens)
Test: Tobacco budworm (Heliothis virescens) I: 96-well microtiter plates with insect diet and eggs, egg and larval mortality
Format: in vivo
Settings: at 2500 ppm; sprayed onto insect diet; 5 days incubation; in comparison with untreated controls

Compound | mortality (egg and larval mortality, visually assessed)
Cc1cc(C2=NOC(c3cc(Cl)cc(Cl)c3)(C(F)(F)F)C2)ccc1C=NNC(=O)NCc1ccnc(Cl)n1 (racemic) [Compound 1-40] | at least 75%
CCNC(=O)NN=Cc1ccc(C2=NOC(c3cc(Cl)cc(Cl)c3)(C(F)(F)F)C2)cc1OCC (racemic) [Compound 11-3] | at least 75%
Cc1cc(C2=NOC(c3cc(Cl)cc(Cl)c3)(C(F)(F)F)C2)ccc1C=NNc1cccc(Cl)n1 (centres unmarked) [Compound 1-82] | at least 75%
CNC(=S)NN=Cc1ccc(C2=NOC(c3cc(F)c(F)c(F)c3)(C(F)(F)F)C2)cc1C (centres unmarked) [Compound 7-6] | at least 75%
Cc1cc(C2=NOC(c3cc(Cl)cc(Cl)c3)(C(F)(F)F)C2)ccc1C=NNC(=O)NCCS(=O)(=O)C(F)(F)F (racemic) [Compound 1-58] | at least 75%
O=C(NN=Cc1ccc(C2=NOC(c3cc(Cl)cc(Cl)c3)(C(F)(F)F)C2)c2ccccc12)NC1CC1 (racemic) [Compound 10-4] | at least 75%
O=C(NCCc1cccs1)NN=Cc1ccc(C2=NOC(c3cc(Cl)cc(Cl)c3)(C(F)(F)F)C2)cc1Cl (centres unmarked) [Compound 4-8] | at least 75%
CCCCCNC(=O)NN=Cc1ccc(C2=NOC(c3cc(Cl)cc(Cl)c3)(C(F)(F)F)C2)cc1C (centres unmarked) [Compound 1-16] | at least 75%
CCNC(=S)NN=Cc1ccc(C2=NOC(c3cc(F)c(F)c(F)c3)(C(F)(F)F)C2)cc1Cl (centres unmarked) [Compound 8-7] | at least 75%
CCNC(=O)NN=Cc1ccc(C2=NOC(c3cc(Cl)cc(Cl)c3)(C(F)(F)F)C2)cc1F (centres unmarked) [Compound 3-2] | at least 75%
CC(C)(CS(C)(=O)=O)NC(=O)NN=Cc1ccc(C2=NOC(c3cc(Cl)cc(Cl)c3)(C(F)(F)F)C2)cc1Cl (centres unmarked) [Compound 4-54] | at least 75%
Cc1cc(C2=NOC(c3cc(Cl)cc(Cl)c3)(C(F)(F)F)C2)ccc1C=NNC(=O)NCc1ccco1 (centres unmarked) [Compound 1-7] | at least 75%
Cc1c(C=NNC(=S)NCC(F)(F)F)ccc(C2=NOC(c3cc(Cl)cc(Cl)c3)(C(F)(F)F)C2)c1C (centres unmarked) [Compound 6-1] | at least 75%
Cc1cc(C2=NOC(c3cc(Cl)cc(Cl)c3)(C(F)(F)F)C2)ccc1C=NNC(=O)NCc1ccccc1 (centres unmarked) [Compound 1-70] | at least 75%
Cc1cc(C2=NOC(c3cc(Cl)cc(Cl)c3)(C(F)(F)F)C2)ccc1C=NNC(=O)NCc1cccnc1 (centres unmarked) [Compound 1-75] | at least 75%
Cc1cc(C2=NOC(c3cc(Cl)cc(Cl)c3)(C(F)(F)F)C2)ccc1C=NNC(=O)Nc1ncccc1Cl (racemic) [Compound 1-52] | at least 75%
Cc1cc(C2=NOC(c3cc(Cl)cc(Cl)c3)(C(F)(F)F)C2)ccc1C=NNC(=O)Nc1cccnc1 (centres unmarked) [Compound 1-22] | at least 75%
Cc1cc(C2=NOC(c3cc(Cl)cc(Cl)c3)(C(F)(F)F)C2)ccc1C=NNC(=O)Nc1ccnnc1 (racemic) [Compound 1-41] | at least 75%
N#Cc1cc(C2=NOC(c3cc(Cl)cc(Cl)c3)(C(F)(F)F)C2)ccc1C=NNC(=O)NCC1CC1 (centres unmarked) [Compound 5-5] | at least 75%

Compound | mortality (egg and larval mortality, visually assessed)
COc1cc(C2=NOC(c3cc(Cl)cc(Cl)c3)(C(F)(F)F)C2)ccc1C=NNC(=O)NC(C)(C)CSC (racemic) [Compound 9-15] | at least 75%
O=C(CNC(=O)NN=Cc1ccc(C2=NOC(c3cc(Cl)cc(Cl)c3)(C(F)(F)F)C2)cc1Cl)NC1CC1 (centres unmarked) [Compound 4-16] | at least 75%
Cc1cc(C2=NOC(c3cc(Cl)cc(Cl)c3)(C(F)(F)F)C2)ccc1C=NNC(=O)NC1(c2ccccc2)CC1 (centres unmarked) [Compound 1-79] | at least 75%
CSCCNC(=O)NN=Cc1ccc(C2=NOC(c3cc(Cl)cc(Cl)c3)(C(F)(F)F)C2)cc1Cl (centres unmarked) [Compound 4-21] | at least 75%
NC(=O)NN=Cc1ccc(C2=NOC(c3cc(Cl)cc(Cl)c3)(C(F)(F)F)C2)cc1C(F)(F)F (centres unmarked) [Compound 2-12] | at least 75%
CNC(=O)NN=Cc1ccc(C2=NOC(c3cc(Cl)cc(Cl)c3)(C(F)(F)F)C2)cc1C#N (centres unmarked) [Compound 5-2] | at least 75%
Cc1cc(C2=NOC(c3cc(Cl)cc(Cl)c3)(C(F)(F)F)C2)ccc1C=NNC(=O)Nc1ccncn1 (racemic) [Compound 1-48] | at least 75%
Cc1cc(C2=NOC(c3cc(Cl)cc(Cl)c3)(C(F)(F)F)C2)ccc1C=NNC(=O)N1CCCC1 (centres unmarked) [Compound 1-20] | at least 75%
O=C(NCCC(F)(F)F)NN=Cc1ccc(C2=NOC(c3cc(Cl)cc(Cl)c3)(C(F)(F)F)C2)cc1Cl (centres unmarked) [Compound 4-18] | at least 75%
COc1cc(C2=NOC(c3cc(Cl)cc(Cl)c3)(C(F)(F)F)C2)ccc1C=NNC(=O)NC(C)COc1ccccc1 (centres unmarked) [Compound 9-13] | at least 75%
O=C(NCc1ccco1)NN=Cc1ccc(C2=NOC(c3cc(Cl)cc(Cl)c3)(C(F)(F)F)C2)cc1Cl (centres unmarked) [Compound 4-14] | at least 75%
O=C(NCC(F)(F)F)NN=Cc1ccc(C2=NOC(c3cc(Cl)cc(Cl)c3)(C(F)(F)F)C2)cc1F (centres unmarked) [Compound 3-3] | at least 75%
CC(C)CNC(=O)NN=Cc1ccc(C2=NOC(c3cc(Cl)cc(Cl)c3)(C(F)(F)F)C2)cc1Cl (centres unmarked) [Compound 4-7] | at least 75%
Cc1cc(C2=NOC(c3cc(Cl)cc(Cl)c3)(C(F)(F)F)C2)ccc1C=NNC(=O)N1CCSCC1 (centres unmarked) [Compound 1-31] | at least 75%
CSCC(C)NC(=O)NN=Cc1ccc(C2=NOC(c3cc(Cl)cc(Cl)c3)(C(F)(F)F)C2)cc1C (centres unmarked) [Compound 1-83] | at least 75%
Cc1cc(C2=NOC(c3cc(Cl)cc(Cl)c3)(C(F)(F)F)C2)ccc1C=NNC(=O)NCCc1cccs1 (centres unmarked) [Compound 1-6] | at least 75%
CC(C)NC(=O)NN=Cc1ccc(C2=NOC(c3cc(Cl)cc(Cl)c3)(C(F)(F)F)C2)cc1C(F)(F)F (centres unmarked) [Compound 2-11] | at least 75%
CC(C[S+](C)[O-])NC(=O)NN=Cc1ccc(C2=NOC(c3cc(Cl)cc(Cl)c3)(C(F)(F)F)C2)cc1Cl (centres unmarked) [Compound 4-48] | at least 75%
Cc1cc(C2=NOC(c3cc(Cl)cc(Cl)c3)(C(F)(F)F)C2)ccc1C=NNC(=O)NCc1ccnc(Cl)c1 (racemic) [Compound 1-45] | at least 75%

Compound | mortality (egg and larval mortality, visually assessed)
Cc1cc(C2=NOC(c3cc(Cl)cc(Cl)c3)(C(F)(F)F)C2)ccc1C=NNC(=O)NCC1CC1 (centres unmarked) [Compound 1-12] | at least 75%
Cc1cc(C2=NOC(c3cc(Cl)cc(Cl)c3)(C(F)(F)F)C2)ccc1C=NNC(=O)NC(C)CS(C)(=O)=O (centres unmarked) [Compound 1-90] | at least 75%
O=C(NCC1CCCO1)NN=Cc1ccc(C2=NOC(c3cc(Cl)cc(Cl)c3)(C(F)(F)F)C2)cc1C(F)(F)F (centres unmarked) [Compound 2-7] | at least 75%
CNC(=O)NN=Cc1ccc(C2=NOC(c3cc(F)c(F)c(F)c3)(C(F)(F)F)C2)cc1Cl (centres unmarked) [Compound 8-5] | at least 75%
COc1cc(C2=NOC(c3cc(Cl)cc(Cl)c3)(C(F)(F)F)C2)ccc1C=NNC(=O)NCc1ccccc1 (centres unmarked) [Compound 9-4] | at least 75%
O=C(NCCC(F)=C(F)F)NN=Cc1ccc(C2=NOC(c3cc(Cl)cc(Cl)c3)(C(F)(F)F)C2)cc1Cl (centres unmarked) [Compound 4-40] | at least 75%
Cc1cc(C2=NOC(c3cc(Cl)cc(Cl)c3)(C(F)(F)F)C2)ccc1C=NNC(=O)c1n[nH]c(Cl)n1 (racemic) [Compound 1-60] | at least 75%
Cc1cc(C2=NOC(c3cc(Cl)cc(Cl)c3)(C(F)(F)F)C2)ccc1C=NNC(=O)NCC(=O)N(C)C (racemic) [Compound 1-54] | at least 75%
CC(NC(=O)NN=Cc1ccc(C2=NOC(c3cc(Cl)cc(Cl)c3)(C(F)(F)F)C2)cc1Cl)c1cccnc1 (centres unmarked) [Compound 4-47] | at least 75%
FC(F)(F)C1(c2cc(Cl)cc(Cl)c2)CC(c2ccc(C=NNc3ccc(Cl)cn3)c(Cl)c2)=NO1 (centres unmarked) [Compound 4-46] | at least 75%
O=C(NCc1cccnc1)NN=Cc1ccc(C2=NOC(c3cc(Cl)cc(Cl)c3)(C(F)(F)F)C2)cc1Cl (centres unmarked) [Compound 4-32] | at least 75%
O=C(NCC(F)F)NN=Cc1ccc(C2=NOC(c3cc(Cl)cc(Cl)c3)(C(F)(F)F)C2)cc1C(F)(F)F (centres unmarked) [Compound 2-14] | at least 75%
O=C(NCc1ccnc(Cl)n1)NN=Cc1ccc(C2=NOC(c3cc(Cl)cc(Cl)c3)(C(F)(F)F)C2)cc1Cl (centres unmarked) [Compound 4-25] | at least 75%
Cc1cc(C2=NOC(c3cc(F)c(F)c(F)c3)(C(F)(F)F)C2)ccc1C=NNC(=O)NCC(F)(F)F (centres unmarked) [Compound 7-1] | at least 75%
CNC(=S)NN=Cc1ccc(C2=NOC(c3cc(Cl)cc(Cl)c3)(C(F)(F)F)C2)cc1C (racemic) [Compound 1-68] | at least 75%
Cc1cc(C2=NOC(c3cc(Cl)cc(Cl)c3)(C(F)(F)F)C2)ccc1C=NNC(=O)Nc1ccc(Cl)nn1.Cl (racemic) [Compound 1-47] | at least 75%
CC(CS(C)(=O)=O)NC(=O)NN=Cc1ccc(C2=NOC(c3cc(Cl)cc(Cl)c3)(C(F)(F)F)C2)cc1Cl (centres unmarked) [Compound 4-49] | at least 75%
Cc1cc(C2=NOC(c3cc(Cl)cc(Cl)c3)(C(F)(F)F)C2)ccc1C=NNC(=O)NCCOc1ccccc1 (racemic) [Compound 1-69] | at least 75%
